In patent publication US20210380556A1, “HETEROARYLAZOLE COMPOUND AND PEST CONTROL AGENT” (Nippon Soda Co., Ltd., priority 2018, published 2021):
Some of these results come from one statement about several compounds together.

Assays:
Assay type in all cases: in vivo
Mythimna separata = experiment: Test Example 2: efficacy on Mythimna separata (corn leaf dip); conditions: 125 ppm; corn leaves dipped 30 seconds; second instar larvae; after 6 days
Plutella xylostella = experiment: Test Example 3: efficacy on Plutella xylostella (cabbage leaf dip); conditions: 125 ppm; cabbage leaves dipped 30 seconds; second instar larvae; after 3 days
Method: 5 parts of the heteroaryl azole compound of the present invention, 93.6 parts of dimethylformamide, and 1.4 parts of polyoxyethylene alkyl aryl ether were mixed and dissolved to prepare emulsion (I) containing 5% of the active ingredient.
Insecticidal rate (%)=(The number of dead insects/The number of tested insects)×100
The emulsion (I) was diluted with water such that the concentration of the compound of the present invention was 125 ppm. Cabbage leaves were dipped in the dilution for 30 seconds. The resulting cabbage leaves were placed in a petri dish. Five second instar larvae of Plutella xylostella were released thereto. The petri dish was placed in a thermostat chamber having a temperature of 25° C. and a humidity of 60%. Life and death were determined after 3 days from the release of the insects, and the insecticidal rate was calculated. The test was conducted in duplicate.

Spodoptera litura = experiment: Test Example 4: efficacy on Spodoptera litura (cabbage leaf dip); conditions: 125 ppm; cabbage leaves dipped 30 seconds; second instar larvae; after 6 days
[1] = system: Phyllotreta striolata adults; experiment: Test Example 6: efficacy on Phyllotreta striolata, 125 ppm spray; conditions: sprayed to Qing geng cai seedlings, after 7 days
[2] = system: Phyllotreta striolata adults; experiment: Test Example 7: efficacy on Phyllotreta striolata, 2 ppm spray; conditions: sprayed to Qing geng cai seedlings, after 7 days
Aphis craccivora = experiment: Test Example 5: efficacy on Aphis craccivora (spray on black-eyed peas); conditions: 125 ppm; sprayed to black-eyed peas with nymphs; after 4 days
Nilaparvata lugens = experiment: Test Example 8: efficacy on Nilaparvata lugens (rice seedling dip); conditions: 125 ppm; rice seedlings dipped 30 seconds; second instar larvae; after 7 days

Measured: insecticidal rate

CCS(=O)(=O)c1cc(-c2ncccn2)cnc1-c1ncc(C(F)C(F)(F)C(F)(F)C(F)(F)F)n1C (centres unmarked) [b-21]
not listed: Aphis craccivora | Nilaparvata lugens
≥ 80%: all other assays above

CCS(=O)(=O)c1cccnc1-c1ncc(C(F)(F)C(F)(F)C(F)(F)C(F)(F)F)n1C [b-3]
≥ 80%: Aphis craccivora | Nilaparvata lugens

CCS(=O)(=O)c1cc(C2CC2)cnc1-c1ncc(C(F)(F)C(F)(F)C(F)(F)F)n1C [b-20]
≥ 80%: Plutella xylostella | Spodoptera litura | Aphis craccivora

CCS(=O)(=O)c1cc(C(F)(F)F)cnc1-c1ncc(C(F)(F)C(F)(F)C(F)(F)F)n1C [b-15]
≥ 80%: Plutella xylostella | Aphis craccivora | Nilaparvata lugens

CCS(=O)(=O)c1cc(-c2ncccn2)cnc1-c1ncc(CC(C(F)(F)F)C(F)(F)F)n1C [b-48]
≥ 80%: Plutella xylostella | [1] | [2] | Nilaparvata lugens

CCS(=O)(=O)c1cc(C2CC2)cnc1-c1ncc(C(F)C(F)(F)C(F)(F)C(F)(F)F)n1C (centres unmarked) [b-18]
not listed: Nilaparvata lugens
≥ 80%: all other assays above

CCS(=O)(=O)c1cc(-c2ccccn2)cnc1-c1ncc(C(F)(F)C(F)(F)C(F)(F)F)n1C [b-29]
≥ 80%: Plutella xylostella | Aphis craccivora | [1] | [2]

CCS(=O)(=O)c1cc(C(F)(F)F)cnc1-c1ncc(C(F)(F)C(F)(F)C(F)(F)C(F)(F)F)n1C [b-7]
≥ 80%: Aphis craccivora | Nilaparvata lugens

CCS(=O)(=O)c1cc(-c2ncccn2)cnc1-c1ncc(C(F)C(F)(F)C(F)(F)F)n1C (centres unmarked) [b-24]
≥ 80%: Plutella xylostella | Aphis craccivora | [1] | [2]

CCS(=O)(=O)c1cc(-c2ncccc2Cl)cnc1-c1ncc(C(F)(F)C(F)(F)C(F)(F)F)n1C [b-62]
≥ 80%: Plutella xylostella | Aphis craccivora | [1] | [2]

CCS(=O)(=O)c1cc(-c2ncccn2)cnc1-c1ncc(C(F)CCC(F)(F)F)n1C (centres unmarked) [b-67]
≥ 80%: Plutella xylostella | Nilaparvata lugens

CCS(=O)(=O)c1cc(-c2ncccn2)cnc1-c1ncc(C(F)(F)C(F)(F)C(F)(F)C(F)(F)F)n1C [b-4]
not listed: Spodoptera litura
≥ 80%: all other assays above

CCS(=O)(=O)c1ccc(-c2ncccn2)nc1-c1ncc(C(F)C(F)(C(F)(F)F)C(F)(F)F)n1C (centres unmarked) [b-46]
≥ 80%: Nilaparvata lugens

CCS(=O)(=O)c1cc(-c2cc(F)cc(F)c2)cnc1-c1ncc(C(F)C(F)(F)C(F)(F)F)n1C (centres unmarked) [b-34]
≥ 80%: Plutella xylostella | [1] | [2] | Nilaparvata lugens

CCS(=O)(=O)c1ccc(-n2cncn2)nc1-c1ncc(C(F)(F)C(F)(F)C(F)(F)C(F)(F)F)n1C [b-8]
≥ 80%: Plutella xylostella | Aphis craccivora | [1] | [2]

CCS(=O)(=O)c1cc(C2CC2)cnc1-c1ncc(C(F)C(F)(C(F)(F)F)C(F)(F)F)n1C (centres unmarked) [b-52]
≥ 80%: Plutella xylostella | Aphis craccivora | [1] | [2]

CCS(=O)(=O)c1cc(-n2cncn2)cnc1-c1ncc(C(F)C(F)(F)C(F)(F)F)n1C (centres unmarked) [b-28]
≥ 80%: Nilaparvata lugens

CCS(=O)(=O)c1cc(-c2ccccc2F)cnc1-c1ncc(C(F)(F)C(F)(F)C(F)(F)F)n1C [b-58]
≥ 80%: Plutella xylostella | Aphis craccivora | [1] | [2]

CCS(=O)(=O)c1ccc(-n2cncn2)nc1-c1ncc(C(F)(F)C(F)(F)F)n1C [b-17]
≥ 80%: Aphis craccivora | Nilaparvata lugens

CCS(=O)(=O)c1cc(-c2ncccc2F)cnc1-c1ncc(C(F)(F)C(F)(F)C(F)(F)C(F)(F)F)n1C [b-61]
≥ 80%: Plutella xylostella | Aphis craccivora | [1] | [2]

CCS(=O)(=O)c1ccc(-c2ncccn2)nc1-c1ncc(C(F)(F)C(F)(F)C(F)(F)C(F)(F)F)n1C [b-9]
≥ 80%: Plutella xylostella | Aphis craccivora | [1] | Nilaparvata lugens

CCS(=O)(=O)c1cc(C2(C#N)CC2)cnc1-c1ncc(C(F)(F)C(F)(F)C(F)(F)F)n1C [b-51]
≥ 80%: Plutella xylostella | Nilaparvata lugens

CCS(=O)(=O)c1ccc(-n2cncn2)nc1-c1ncc(C(F)C(F)(C(F)(F)F)C(F)(F)F)n1C (centres unmarked) [b-47]
≥ 80%: Plutella xylostella | Nilaparvata lugens
